PubChem BioAssay AID720505 | Drosophila RNAi Screening Center – 2013

Screen: 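Genes needed for store-operated calcium entry in fly cells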 (primary screen)
Cell system: Drosophila S2R+ cells
Reagent: long dsRNA against Drosophila genes
Conditions: thapsigargin (2 µM) in calcium-free buffer to empty internal stores, then 2 mM calcium added back
Measured: 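Fluo-4 signal in 384-well plates read on a FLIPR after thapsigargin (2 µM, calcium-free) store depletion and 2 mM calcium add-back; unnormalised mean endpoint per well; screen run twice, selected wells retested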
Reading the numbers: calcium signal and retest calcium signal: higher = more calcium entry after store depletion
Call rule: 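About 1500 genes called as lowering calcium entry, by varying amounts, judged against per-plate control wells with STIM1 as positive and Rho1 as negative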
Meaning of the calls: active = called as lowering calcium entry; inactive = not called
The deposit covers about 20,000 reagents; shown is a random part of those with a known target gene and a result. Over the whole deposit, about 2,100 (10%) got an active call. 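Raw plate signals without normalisation; calls rest on control-based scores that were not deposited; replicate 2 separates called from uncalled poorly.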 Entries without a mark were called inactive. Names joined by + are all predicted targets of the reagent. Reagent sequences are not shown. The record does not give: the amount of reagent, the time to read-out.

gene,dsRNA,"calcium signal, replicate 1","calcium signal, replicate 2","retest calcium signal, replicate 1","retest calcium signal, replicate 2"
Ssu72 (Ssu72 CTD phosphatase),DRSC19572,241,81.8,,
me31B (maternal expression at 31B),DRSC03569,99.1,126,,
nmd (no mitochondrial derivative),DRSC02856,79.4,136,,
Prestin,DRSC10507,88.5 (active),88.2,,
ac (achaete),DRSC18734,93.6,112,,
CG1774,DRSC15258,65 (active),96,,
CG10764,DRSC06000,139,112,,
GstO3 (Glutathione S transferase O3),DRSC10710,82.6,75.9,,
CG34165,DRSC01970,72.2 (active),120,71.9,91.8
Amy-d + Amy-p,DRSC21242,173,89.6,,
fw (furrowed),DRSC20334,127,78.3,,
CG7255,DRSC10790,107,75.5,,
CG31183,DRSC14403,180,237,,
CG31183,DRSC15554,95.7,175,,
Ask1 (Apoptotic signal-regulating kinase 1),DRSC16789,137,134,,
Ask1 (Apoptotic signal-regulating kinase 1),DRSC21697,41.6 (active),135,,
Cyp4d14 (Cytochrome P450 4d14),DRSC18457,85.1,141,,
CG9864,DRSC07346,205,156,,
Ugalt (UDP-galactose transporter),DRSC18467,127,135,,
Patsas,DRSC02975,118,92.6,,
CG15572,DRSC18060,149,130,,

A few values from above.
ac (achaete) [DRSC18734], calcium signal, replicate 2: 112
Under “calcium signal, replicate 1”, CG10764 [DRSC06000] reads 139
Entry for CG15572 [DRSC18060] under “calcium signal, replicate 2”: 130
Cyp4d14 (Cytochrome P450 4d14) [DRSC18457], calcium signal, replicate 1 = 85.1

Next results:
gene,dsRNA,"calcium signal, replicate 1","calcium signal, replicate 2","retest calcium signal, replicate 1","retest calcium signal, replicate 2"
Ssl2 (Strictosidine synthase-like 2),DRSC14395,173,85,,
Ssl2 (Strictosidine synthase-like 2),DRSC22796,73.6,88.8,,
GstE5 (Glutathione S transferase E5),DRSC06675,189,168,,
CG13989,DRSC02321,68.1 (active),177,,
CG34204,DRSC03897,80.3,6016,,
Chrac-16 (Chromatin accessibility complex 16kD protein),DRSC20343,81.1,83.8,,
Kaz (Katazuke),DRSC14637,145,80.1,,
CG12716,DRSC19493,105,99.2,,
nito (spenito),DRSC05943,163,107,,
RhoGEF3 (Rho guanine nucleotide exchange factor 3),DRSC08266,55.3 (active),60.2,133,109
RhoGEF3 (Rho guanine nucleotide exchange factor 3),DRSC08351,83.8,109,,
RhoGEF3 (Rho guanine nucleotide exchange factor 3),DRSC08352,80.9,113,,
RhoGEF3 (Rho guanine nucleotide exchange factor 3),DRSC08353,87.2,64.4,,
CG40498,DRSC07786,112,98.9,,
CG12661,DRSC17864,55.8 (active),262,,
CG43367,DRSC08299,103,97.5,,
CG43367,DRSC08301,94.4,119,,
CG43367,DRSC08309,93.4,85.5,,
5-HT2A (5-hydroxytryptamine (serotonin) receptor 2A),DRSC11990,52.3 (active),121,,
phr6-4 ((6-4)-photolyase),DRSC03589,205,135,,
Suv3 (Suv3 helicase),DRSC12335,117,108,,
Trxr1 (Thioredoxin reductase 1),DRSC18668,118,77.1,,
Trxr1 (Thioredoxin reductase 1),DRSC22293,80.3,198,,
eIF4E4 (eukaryotic translation initiation factor 4E4),DRSC09701,69.2,66.8,,
e(r) (enhancer of rudimentary),DRSC18768,152,162,,
Mp (Multiplexin),DRSC10193,159,97,92.1,114
Mp (Multiplexin),DRSC11029,93.7,82.1,,
Mp (Multiplexin),DRSC11030,113,92,,
Abl (Abl tyrosine kinase),DRSC09661,114,165,,
Abl (Abl tyrosine kinase),DRSC23306,104,125,,
Lipt2 (Lipoyl(octanoyl) transferase 2),DRSC12338,100,90.7,117,98.5
Lipt2 (Lipoyl(octanoyl) transferase 2),DRSC22610,108,206,,
BCAS2,DRSC15693,106,112,,
CG11112,DRSC06038,115,134,,
CG7332,DRSC20038,166,161,,
